Reference: paper PMC3988052

Target: T1, ATHB17Δ113::MYC-HA (C-terminal MYC-HA fusion of ATHB17Δ113) (Arabidopsis) (UniProt Q8S9N6)
T1 sequence: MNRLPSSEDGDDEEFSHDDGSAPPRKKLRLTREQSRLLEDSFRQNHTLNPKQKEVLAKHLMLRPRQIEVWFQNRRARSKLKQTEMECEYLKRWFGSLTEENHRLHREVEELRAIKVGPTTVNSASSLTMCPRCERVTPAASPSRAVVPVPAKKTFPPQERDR
Assay: co-IP; bead-based co-immunoprecipitation with Luminex on-bead detection; lysates of co-transformed maize leaf protoplasts; capture on anti-MYC magnetic beads, detection with biotinylated anti-CFP and NeutrAvidin R-phycoerythrin; signal above mean + 3 sigma of the negative controls counted as positive

- binding: no binding
Substance: Zmhdz3 (maize HD-Zip I protein), CFP tagged

Results are given in words; binding and its absence hold for the method and conditions named. Binding seen in cells or lysates may run through a third protein. Tags and fused reporters may be left off the sequences shown.
